# Results of single-concentration screens

Protein sequences, listed by entry. Tags and fused reporters are not part of them. Residues count along the entry.
UniProt I6X8D2, whole entry: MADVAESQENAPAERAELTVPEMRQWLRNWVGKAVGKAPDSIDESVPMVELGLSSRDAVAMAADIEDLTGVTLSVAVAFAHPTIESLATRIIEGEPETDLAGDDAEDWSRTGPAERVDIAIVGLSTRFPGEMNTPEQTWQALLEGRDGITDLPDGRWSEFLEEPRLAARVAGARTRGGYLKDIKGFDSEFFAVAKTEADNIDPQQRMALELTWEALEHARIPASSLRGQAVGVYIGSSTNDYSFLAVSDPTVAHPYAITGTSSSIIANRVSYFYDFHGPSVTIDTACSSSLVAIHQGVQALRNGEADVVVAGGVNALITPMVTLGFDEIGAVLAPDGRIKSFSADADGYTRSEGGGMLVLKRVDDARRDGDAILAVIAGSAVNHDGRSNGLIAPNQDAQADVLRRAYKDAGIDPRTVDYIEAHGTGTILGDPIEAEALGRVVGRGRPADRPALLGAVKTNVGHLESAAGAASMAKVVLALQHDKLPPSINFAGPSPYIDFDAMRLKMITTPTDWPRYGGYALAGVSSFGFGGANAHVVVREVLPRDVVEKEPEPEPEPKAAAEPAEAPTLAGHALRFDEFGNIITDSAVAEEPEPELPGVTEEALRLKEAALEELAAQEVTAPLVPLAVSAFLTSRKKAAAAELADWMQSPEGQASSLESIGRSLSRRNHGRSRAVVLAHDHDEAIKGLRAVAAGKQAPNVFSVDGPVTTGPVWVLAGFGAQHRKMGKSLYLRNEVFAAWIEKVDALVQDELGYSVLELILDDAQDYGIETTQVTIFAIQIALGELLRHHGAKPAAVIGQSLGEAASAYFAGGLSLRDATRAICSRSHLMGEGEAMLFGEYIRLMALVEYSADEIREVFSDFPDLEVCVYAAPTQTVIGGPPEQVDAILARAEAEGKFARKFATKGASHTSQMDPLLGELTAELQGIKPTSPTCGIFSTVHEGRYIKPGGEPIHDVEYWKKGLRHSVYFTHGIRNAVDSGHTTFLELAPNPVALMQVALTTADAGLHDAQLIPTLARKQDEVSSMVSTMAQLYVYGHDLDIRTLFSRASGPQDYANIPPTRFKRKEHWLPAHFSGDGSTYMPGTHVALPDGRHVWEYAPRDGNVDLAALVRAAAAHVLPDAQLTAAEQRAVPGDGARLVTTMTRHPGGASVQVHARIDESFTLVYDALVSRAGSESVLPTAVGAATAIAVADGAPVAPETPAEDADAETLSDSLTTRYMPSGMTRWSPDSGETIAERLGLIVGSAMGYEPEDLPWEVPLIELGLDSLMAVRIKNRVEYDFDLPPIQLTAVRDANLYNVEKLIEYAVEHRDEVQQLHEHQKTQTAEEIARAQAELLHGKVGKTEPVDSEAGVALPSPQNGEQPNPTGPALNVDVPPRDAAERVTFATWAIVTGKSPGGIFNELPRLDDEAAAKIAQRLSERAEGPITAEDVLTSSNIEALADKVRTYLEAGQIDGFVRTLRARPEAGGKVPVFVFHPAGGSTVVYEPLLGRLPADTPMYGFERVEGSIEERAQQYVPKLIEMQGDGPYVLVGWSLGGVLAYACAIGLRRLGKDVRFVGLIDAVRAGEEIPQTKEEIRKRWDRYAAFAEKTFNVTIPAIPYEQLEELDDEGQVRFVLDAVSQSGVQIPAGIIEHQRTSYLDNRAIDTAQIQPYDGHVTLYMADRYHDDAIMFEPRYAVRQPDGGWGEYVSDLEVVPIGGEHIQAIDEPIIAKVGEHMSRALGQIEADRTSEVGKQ
UniProt A4I591, 1-473: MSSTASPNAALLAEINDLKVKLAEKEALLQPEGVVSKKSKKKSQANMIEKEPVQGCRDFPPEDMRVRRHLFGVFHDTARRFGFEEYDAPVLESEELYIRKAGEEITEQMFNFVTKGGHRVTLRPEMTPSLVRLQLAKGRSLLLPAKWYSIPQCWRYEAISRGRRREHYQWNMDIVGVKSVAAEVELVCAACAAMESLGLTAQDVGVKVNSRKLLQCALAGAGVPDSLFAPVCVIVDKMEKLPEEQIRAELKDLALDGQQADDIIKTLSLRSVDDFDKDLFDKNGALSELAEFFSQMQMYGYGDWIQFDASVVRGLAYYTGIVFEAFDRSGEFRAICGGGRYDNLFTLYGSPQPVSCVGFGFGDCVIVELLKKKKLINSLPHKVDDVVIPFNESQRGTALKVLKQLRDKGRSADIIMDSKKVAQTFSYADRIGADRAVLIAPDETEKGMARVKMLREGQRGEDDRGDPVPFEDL
UniProt P9WNZ1, whole entry: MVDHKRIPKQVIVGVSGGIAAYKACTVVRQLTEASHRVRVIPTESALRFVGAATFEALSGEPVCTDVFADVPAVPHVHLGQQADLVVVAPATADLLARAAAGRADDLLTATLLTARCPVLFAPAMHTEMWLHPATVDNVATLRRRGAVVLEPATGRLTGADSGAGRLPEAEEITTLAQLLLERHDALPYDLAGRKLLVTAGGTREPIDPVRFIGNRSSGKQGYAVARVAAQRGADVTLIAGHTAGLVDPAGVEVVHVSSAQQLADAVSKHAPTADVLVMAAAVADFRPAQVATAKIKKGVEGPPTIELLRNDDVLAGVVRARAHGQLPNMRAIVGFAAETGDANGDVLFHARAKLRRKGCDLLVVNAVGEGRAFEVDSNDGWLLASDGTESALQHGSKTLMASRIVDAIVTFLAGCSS

Pks13 thioesterase: 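Enzyme assay of the thioesterase domain of polyketide synthase 13; the read-out is not stated. Target: Polyketide synthase Pks13, Mycobacterium tuberculosis (UniProt I6X8D2). Compounds at 30 µM. The record gives no direction; the compounds picked for IC50 retests had high values, so higher reads as stronger inhibition. About 67,000 compounds were tested under these conditions; 0.46% (about 300) showed 50% or more at least once.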
LiHisRS: 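Enzyme assay of histidyl-tRNA synthetase; the read-out is not stated. Target: Histidine-tRNA ligase, Leishmania infantum (UniProt A4I591). Concentration: 30 µM. Higher reads as stronger inhibition (inferred: compounds with an IC50 in retests scored well above the rest). The assay is labelled LdHisRS but filed under L. infantum. About 69,000 compounds were tested under these conditions; 0.6% (about 410) showed 50% or more at least once.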
CoaBC: 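Enzyme assay of CoaBC with a phosphate dye (Biomol Green) read at 650 nm. Target: Coenzyme A biosynthesis protein CoaBC, Mycobacterium tuberculosis (UniProt P9WNZ1). Tested at 30 µM. Direction is inferred from only a few compounds that gave an IC50; most scored high, so higher reads as stronger inhibition. Most strong results did not repeat in a second test. Size under these conditions: about 67,000 compounds, about 40 of them at 50% or above in at least one test.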

Each number is a percent effect as filed.
How 0% and 100% were set is not recorded. Most values in the screen are low, and negative values occur.
The compounds are a random part of those screened.
A dash means the value is not listed here; it may have been measured.

Compound | Pks13 thioesterase | LiHisRS | CoaBC
COc1ncc(C2(O)CCN(Cc3cccc(F)c3F)CC2)c(OC)n1 | 4.908 | 15.94 | -1.942
COc1ccc(C(NCc2cccc(O)c2)C2CC2)cc1 (stereo not shown) | -22.96 | 69.62 | 1.394
CN(Cc1cccnc1)C(CO)c1cccc(Br)c1 (stereo not shown) | -7.763 | 1.205 | -5.443
CN1CCN(Cc2ccccc2CNC(=O)c2ccc(Br)cc2)CC1 | -11.52 | 20.75 | -37.44
CN(Cc1ccncc1)C(=O)[C@H]1CSCN1C(=O)OC(C)(C)C | -14.68 | 5.769 | 3.106
CN(C)c1ccc(C(=O)NCc2csc(Br)c2)cn1 | -30.1 | 11.97 | -6.434
O=C(NCCc1nnc2n1CCCCC2)N1CCC2(CCCC2)CC1 | -24.64 | 5.128 | -5.03
CCC(=O)NCCCn1c(-c2cccnc2C)cc2cccnc21 | 6.863 | 8.571 | 5.825
CO[C@H]1CO[C@@]2(CCCN(S(=O)(=O)c3ccccc3)C2)C1 | -7.553 | 6.422 | -2.637
COCCN1CCC(CNC(=O)C2(c3cccc(C)c3)CC2)C1 (stereo not shown) | - | 22.32 | 4.215
CC(C)S(=O)(=O)N1CCCC(c2cccc(C(=O)O)c2)C1 (stereo not shown) | -34.1 | 3.279 | 4.721
Cc1cccc(-c2nc(C)nn2CN2CCN(S(C)(=O)=O)CC2)c1 | -21.55 | 19.18 | 5.579
COc1ccc(F)c(CN2CCCC(O)(CNCC(C)(C)C)C2=O)c1 (stereo not shown) | -9.073 | 2.857 | 1.08
Cc1cc2cc(C(=O)N[C@@H]3CC[C@@H](N4CCCC4)[C@@H]3O)ccc2o1 | -3.532 | 27.54 | 0.4854
Cc1cc2nccc(C3CCCN(C(=O)c4cnccn4)C3)n2n1 (stereo not shown) | -3.63 | 14.18 | -9.202
Cc1cn[nH]c1C1CCCCN1C(=O)CCN1CCCCCC1 (stereo not shown) | -6.353 | 2.857 | 0.6545
Cc1ccc(C)c(OC(C)C(=O)Nc2cccnc2)c1 (stereo not shown) | -5.251 | 0 | 2.218
CCOCC1CN(Cc2ccccn2)Cc2nn(CC3CC3)cc21 (stereo not shown) | -5.805 | 23.08 | 4.511
O=C(CN1CCCCCC1)NCCSc1cnn[nH]1 | -133.4 | 11.83 | 8.025
NC(=O)c1c(-c2ccc(Cl)cc2Cl)csc1NC(=O)CCCC(=O)O | 3.166 | 10 | 1.139
CS(=O)(=O)N1CCCCCC1C1CCN(Cc2nc(C3CC3)no2)CC1 (stereo not shown) | -9.071 | 10.67 | -0.8264
NC[C@H]1CC[C@H](C(NC(=O)C2CC2)c2ccccn2)CC1 (stereo partly shown) | -33.12 | 18.84 | 2.67
CCc1nccn1C1CCCN(C(=O)c2ccc3[nH]c(=O)[nH]c3c2)C1 (stereo not shown) | -23.01 | 16.44 | 2.41
CC(C)Oc1cccc(C(O)CNC(=O)Nc2cccs2)c1 (stereo not shown) | -30.37 | 16.13 | 0.6061
N#Cc1cccc(CS(=O)(=O)NCCC(O)c2ccccc2)c1 (stereo not shown) | -17.17 | 16.5 | 8.036
COCCC(=O)N1CCc2c(CNc3ncccn3)cncc2C1 | -1.119 | 2.857 | -16.61
N#Cc1ccc(CN2C[C@@H]3OCC(=O)N[C@@H]3C2)cc1 | - | -1.351 | 8.609
CN(C)S(=O)(=O)N1CCC2(COCc3cnc(-c4ccccc4)nc32)C1 (stereo not shown) | -11.03 | 7.547 | 6.472
CCC[C@H]1CN(S(C)(=O)=O)C[C@@H]1NC(=O)c1ccc(COC)cc1 | 125.3 | 16.13 | -1.356
COc1ccc2[nH]cc(CCNC(=O)C3CCCN(C(C)=O)C3)c2c1 (stereo not shown) | -5.426 | 15.22 | 1.094
OC(CN(Cc1ccccc1)Cc1ccccn1)c1cccs1 (stereo not shown) | -40.88 | 3.03 | -2.17
CCn1cnnc1C1CCN(C(=O)COCCc2ccccc2)CC1 | -19.64 | 10.67 | 5.641
Cc1ccc(S(=O)(=O)NC(=O)COc2ccc(CC#N)cc2)s1 | 27.09 | 3.175 | -3.566
O=c1[nH]c(NCc2cccc(-c3ccccc3)c2)nc2c1CCNC2 | -25.4 | 19.15 | 2.978
CNc1cc(C2CCCN2S(=O)(=O)c2cccc(F)c2)ccn1 (stereo not shown) | -14.05 | 1.053 | -1.703
CC(C(=O)N1CCN(c2ccccc2Cl)CC1)n1cncn1 (stereo not shown) | -18.91 | 21.62 | 2.089
Cc1ncc(CNC(C)(C)CO)c2cc(C(=O)c3ccc(Br)cc3)oc12 | - | 32.61 | 7.264
CCc1ccc(CN2CCCC(CO)(CCOC)C2)cc1 (stereo not shown) | -9.028 | 1.887 | 1.762
CCCc1nc(C)c(C(=O)Nc2cccc(C)n2)s1 | -6.917 | -17.98 | 0.8424
CC(C)[C@H](NC(=O)NC1CCS(=O)(=O)C1)C(=O)NCc1ccccc1Cl (stereo partly shown) | -25.67 | 0 | -3.903
CCS(=O)(=O)NCCCNc1cc(N2CCCC2CO)ncn1 (stereo not shown) | 4.762 | 8.434 | 1.899
Cc1ccc(-c2cc(C(=O)NCC3CCOC3)n[nH]2)s1 (stereo not shown) | -8.354 | 15.5 | 5.528
CC(C)(C)NC(=O)CNc1ncc(Br)cn1 | -16.09 | 10.62 | 5.409
O=C(NC1CCCCC1)c1cc(Br)cnc1N1CCCCC1 | 32.53 | 13.86 | 3.641
COc1ccc(-c2nc(CN3CCc4cnc(C)nc4C3)no2)cc1 | 23.1 | 14.29 | 5.682
O=C([C@@H]1CCO[C@@H]2CCN(Cc3ccsc3)C[C@@H]21)N1CCCC1 | -9.037 | 20 | 4

Some entries from above, unchanged:

- CC(C)Oc1cccc(C(O)CNC(=O)Nc2cccs2)c1 (stereo not shown) | Pks13 thioesterase: -30.37%; LiHisRS: 16.13%; CoaBC: 0.6061%
- CN(Cc1cccnc1)C(CO)c1cccc(Br)c1 (stereo not shown) | Pks13 thioesterase: -7.763%; LiHisRS: 1.205%; CoaBC: -5.443%
- O=C([C@@H]1CCO[C@@H]2CCN(Cc3ccsc3)C[C@@H]21)N1CCCC1 | Pks13 thioesterase: -9.037%; LiHisRS: 20%; CoaBC: 4%
- Cc1ccc(S(=O)(=O)NC(=O)COc2ccc(CC#N)cc2)s1 | Pks13 thioesterase: 27.09%; LiHisRS: 3.175%; CoaBC: -3.566%

The values are deposited in ChEMBL (CHEMBL3988442, “University of Dundee, Small-Polar-MMV Screening Library” (2021)).